{
  "sequences": {"note": "Amino acid sequences for entries named in this document (tags omitted). Residues count along the entry.", "UniProt P60520, residues 1-115": "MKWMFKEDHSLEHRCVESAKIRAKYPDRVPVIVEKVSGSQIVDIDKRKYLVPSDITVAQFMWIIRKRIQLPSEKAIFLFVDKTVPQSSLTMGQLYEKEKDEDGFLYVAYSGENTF"},
  "source": "paper PMC7137635",
  "molecular_target": "SGFP2-GATE-16wt (human) (UniProt P60520)",
  "test": "co-IP; GFP-Trap agarose beads on lysates of doxycycline-induced HeLa Flp-In T-REx cells expressing SGFP2 fusions; immunoblot for endogenous OPTN, NDP52, p62; lysis buffer 10 mM TRIS pH 7.5, NaCl, 0.5% NP-40, 1 mM EDTA",
  "note": "No constants are given. Whether binding was seen depends on the method and setting. Binding seen in cells or lysates may run through a third protein. Some binding calls cover weakened binding; strength is not graded here.",
  "data": [
    {"binder": "endogenous NDP52 (CALCOCO2) (protein, UniProt Q13137 1-446) MEETIKDPPTSAVLLDHCHFSQVIFNSVEKFYIPGGDVTCHYTFTQHFIPRRKDWIGIFRVGWKTTREYYTFMWVTLPIDLNNKSAKQQEVQFKAYYLPKDDEYYQFCYVDEDGVVRGASIPFQFRPENEEDILVVTTQGEVEEIEQHNKELCKENQELKDSCISLQKQNSDMQAELQKKQEELETLQSINKKLELKVKEQKDYWETELLQLKEQNQKMSSENEKMGIRVDQLQAQLSTQEKEMEKLVQGDQDKTEQLEQLKKENDHLFLSLTEQRKDQKKLEQTVEQMKQNETTAMKKQQELMDENFDLSKRLSENEIICNALQRQKERLEGENDLLKRENSRLLSYMGLDFNSLPYQVPTSDEGGARQNPGLAYGNPYSGIQESSSPSPLSIKKCPICKADDICDHTLEQQQMQPLCFNCPICDKIFPATEKQIFEDHVFCHSL", "values": [
      {"measurement": "binding", "value": "binds weakly"}
    ]}
  ]
}
